Measurements from PubChem BioAssay (EPA / NIEHS).
This list was built around the results that the source calls inconclusive (neither active nor inactive); the mix of calls is not that of the screen. Potencies beside an inconclusive call are fits to weak or partial responses and may not hold up. The source made the active and inactive calls. How the source made its calls: active means hit-call score of the fitted dose curve at least 0.9, where 1 is the maximum; inconclusive means response in the unintended direction; inactive means score below 0.9.

The chains behind the UniProt entries cited, without tags or fusion partners. Where a name states a change or a piece, a line headed by the entry shows the natural chain unless it says otherwise.
UniProt P03372, whole entry, looked up: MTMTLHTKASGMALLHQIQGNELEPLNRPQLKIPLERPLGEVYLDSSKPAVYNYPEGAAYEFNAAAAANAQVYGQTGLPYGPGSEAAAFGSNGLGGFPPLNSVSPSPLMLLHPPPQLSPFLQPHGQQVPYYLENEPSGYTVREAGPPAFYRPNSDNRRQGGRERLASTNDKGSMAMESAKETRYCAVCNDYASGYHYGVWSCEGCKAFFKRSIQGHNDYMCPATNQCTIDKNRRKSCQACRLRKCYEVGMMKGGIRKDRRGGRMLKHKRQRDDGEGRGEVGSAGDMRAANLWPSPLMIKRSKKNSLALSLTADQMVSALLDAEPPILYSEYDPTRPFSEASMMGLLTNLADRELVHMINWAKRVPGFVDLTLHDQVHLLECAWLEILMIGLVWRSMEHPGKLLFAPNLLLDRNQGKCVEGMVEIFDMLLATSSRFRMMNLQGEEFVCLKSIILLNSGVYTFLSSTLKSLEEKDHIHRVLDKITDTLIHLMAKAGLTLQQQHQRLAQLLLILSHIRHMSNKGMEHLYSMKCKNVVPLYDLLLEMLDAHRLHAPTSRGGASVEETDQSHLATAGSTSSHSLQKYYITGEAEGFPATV
UniProt Q92731, whole entry, looked up: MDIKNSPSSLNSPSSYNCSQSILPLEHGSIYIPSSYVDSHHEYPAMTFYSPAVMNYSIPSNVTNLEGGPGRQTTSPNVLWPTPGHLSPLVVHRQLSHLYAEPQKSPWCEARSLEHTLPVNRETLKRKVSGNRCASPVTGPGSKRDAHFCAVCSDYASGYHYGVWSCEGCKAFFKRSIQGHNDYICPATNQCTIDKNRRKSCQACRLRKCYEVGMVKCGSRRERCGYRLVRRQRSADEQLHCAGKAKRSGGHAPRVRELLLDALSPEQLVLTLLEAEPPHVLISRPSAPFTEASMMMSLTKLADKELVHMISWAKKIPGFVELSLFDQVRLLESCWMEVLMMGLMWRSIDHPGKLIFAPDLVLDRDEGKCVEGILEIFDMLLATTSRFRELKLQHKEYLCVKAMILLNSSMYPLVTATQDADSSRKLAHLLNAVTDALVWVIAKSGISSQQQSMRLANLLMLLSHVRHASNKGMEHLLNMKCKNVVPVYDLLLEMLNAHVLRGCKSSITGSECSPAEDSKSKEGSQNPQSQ
UniProt P10275: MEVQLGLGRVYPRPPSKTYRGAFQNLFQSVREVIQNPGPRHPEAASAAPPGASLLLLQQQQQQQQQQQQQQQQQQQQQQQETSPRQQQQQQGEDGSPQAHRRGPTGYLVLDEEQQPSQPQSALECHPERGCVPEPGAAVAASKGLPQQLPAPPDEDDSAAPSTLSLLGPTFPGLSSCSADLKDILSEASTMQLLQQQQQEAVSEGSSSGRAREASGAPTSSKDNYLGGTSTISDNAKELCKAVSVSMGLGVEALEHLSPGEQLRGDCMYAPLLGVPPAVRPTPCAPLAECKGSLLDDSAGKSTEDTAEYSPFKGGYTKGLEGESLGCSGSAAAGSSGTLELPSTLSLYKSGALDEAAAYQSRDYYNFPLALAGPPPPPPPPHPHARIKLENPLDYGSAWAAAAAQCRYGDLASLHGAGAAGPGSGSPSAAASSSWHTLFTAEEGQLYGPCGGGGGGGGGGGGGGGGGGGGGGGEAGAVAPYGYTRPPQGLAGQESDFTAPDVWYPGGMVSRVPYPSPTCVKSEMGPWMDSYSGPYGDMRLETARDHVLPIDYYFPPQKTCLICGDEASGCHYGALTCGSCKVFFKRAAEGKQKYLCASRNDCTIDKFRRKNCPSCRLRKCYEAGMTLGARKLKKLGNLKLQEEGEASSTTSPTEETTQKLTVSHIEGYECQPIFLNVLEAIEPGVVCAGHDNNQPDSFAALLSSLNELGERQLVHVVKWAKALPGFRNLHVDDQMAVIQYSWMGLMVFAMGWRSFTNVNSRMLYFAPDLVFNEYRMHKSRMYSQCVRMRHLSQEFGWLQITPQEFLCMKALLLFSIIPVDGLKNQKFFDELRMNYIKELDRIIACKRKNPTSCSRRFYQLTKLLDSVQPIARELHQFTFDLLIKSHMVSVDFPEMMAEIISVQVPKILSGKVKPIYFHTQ
UniProt Q07869: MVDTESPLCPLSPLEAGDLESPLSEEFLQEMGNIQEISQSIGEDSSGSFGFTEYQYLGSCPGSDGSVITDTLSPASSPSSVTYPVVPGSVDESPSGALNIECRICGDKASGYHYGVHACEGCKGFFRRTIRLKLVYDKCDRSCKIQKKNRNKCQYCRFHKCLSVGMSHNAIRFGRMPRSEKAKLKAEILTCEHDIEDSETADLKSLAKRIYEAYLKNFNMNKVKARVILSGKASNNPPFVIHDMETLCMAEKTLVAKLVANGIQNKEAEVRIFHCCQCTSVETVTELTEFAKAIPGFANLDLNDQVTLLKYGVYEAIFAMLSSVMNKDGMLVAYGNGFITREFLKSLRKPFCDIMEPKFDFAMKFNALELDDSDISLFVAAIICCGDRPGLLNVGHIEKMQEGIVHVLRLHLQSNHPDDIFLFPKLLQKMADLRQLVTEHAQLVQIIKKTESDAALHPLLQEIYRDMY

These molecules were tested against Estrogen receptor (Homo sapiens) (UniProt P03372) (assay: NVS_NR_hER: NovaScreen (NVS) Nuclear Receptor Binding Assay for human Estrogen Receptor (ER) (AID 2283348)).
Procedure, shortened: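 Radiodetection of ligand displacement in a lysate-based, cell-free format using MCF7 extracts, read at 18 hours. Duplicate 25 uM primary testing, then concentration series for actives.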

Row | SMILES | outcome | AC50
1 | Cc1cccc(Nc2cc(Cl)nc(SCC(=O)O)n2)c1C | inactive | –
2 | C=CCCCCCCCCC=O | – | inconclusive: 6.63 µM
3 | Cc1ccc(C(C)C)c(O)c1 | – | inconclusive: 40 µM
4 | Cc1ccc(N(C)C)cc1 | – | inconclusive: 25 µM
5 | Nc1ccccc1N | – | inconclusive: 0.434 µM
6 | CCCCCCCCCOS(=O)(=O)O | – | active: 11.1 µM

3 structures from above, sorted by SMILES length, smallest number first.
Row | SMILES | outcome | AC50
5 | Nc1ccccc1N | – | inconclusive: 0.434 µM
2 | C=CCCCCCCCCC=O | – | inconclusive: 6.63 µM
1 | Cc1cccc(Nc2cc(Cl)nc(SCC(=O)O)n2)c1C | inactive | –

Three structures from above, arranged by SMILES length, smallest number first:
Row | SMILES | outcome | AC50
5 | Nc1ccccc1N | – | inconclusive: 0.434 µM
4 | Cc1ccc(N(C)C)cc1 | – | inconclusive: 25 µM
1 | Cc1cccc(Nc2cc(Cl)nc(SCC(=O)O)n2)c1C | inactive | –

The molecules below were run against Estrogen receptor (Homo sapiens) (UniProt P03372) (assay: OT_ER_ERaERa_0480: Odyssey Thera (OT) 8-hour HEK293T Protein-Complementation Assay for Estrogen Receptor-alpha/-alpha Homodimer (AID 2283351);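 further: rise in fluorescence from reassembled reporter fragments on ERα LBD homodimer in nucleus or whole cell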).
Procedure, shortened: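 HEK293T cells stably expressing a PCA pair of ER alpha LBD (residues 310-547) were dosed for 8 hours. The gain in fluorescence intensity, nuclear for agonists and whole-cell for antagonists, was measured by laser scanning cytometry against DMSO vehicle.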

Row | SMILES | AC50 | outcome
7 | OB(O)O | inconclusive: 50 µM | –
8 | COCCOCCOC | inconclusive: 50 µM | –
9 | CCCCCCCC/C=C\CCCCCCCC(=O)N(C)CC(=O)O | inconclusive: 50 µM | –
10 | F[Si-2](F)(F)(F)(F)F | – | inactive
11 | CCCCCCCCCC(C)=O | active: 68.5 µM | –
12 | COc1ccc2c(c1)c(CC(=O)O)c(C)n2C(=O)c1ccc(Cl)cc1 | inconclusive: 50 µM | –
13 | COCC(C)OCC(C)O (stereo not given) | inconclusive: 50 µM | –

The molecules below were run against Estrogen receptor (Homo sapiens) + Estrogen receptor beta (Homo sapiens) (UniProt P03372+Q92731) (assay: OT_ER_ERaERb_0480: Odyssey Thera (OT) 8-hour HEK293T Protein-Complementation Assay for Estrogen Receptor-alpha/-beta Heterodimer (AID 2283352)).
Procedure, shortened: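 HEK293T cells expressing ER-alpha/ER-beta LBD fusions to complementary reporter fragments were dosed with compound for 8 hours. Heterodimer formation was read as increased nuclear (agonist) or nuclear plus cytoplasmic (antagonist) mean fluorescence intensity versus DMSO vehicle.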

Row | SMILES | AC50 | outcome
14 | COc1ccccc1O | inconclusive: 50.5 µM | –
15 | c1ccc2cc3ccccc3cc2c1 | – | inactive
16 | CN[C@H]1CC[C@@H](c2ccc(Cl)c(Cl)c2)c2ccc(S(N)(=O)=O)cc21 | inconclusive: 50 µM | –
17 | c1ccc(Nc2cccc3ccccc23)cc1 | active: 24.8 µM | –
18 | CC(=O)OCCOCCOCCOC(C)=O | – | inactive
19 | CCCC(CC)c1ccccc1 (stereo not given) | – | inactive
20 | CCCCc1nc2cccnc2n1Cc1ccc(-c2ccccc2-c2nnn[nH]2)cc1 | inconclusive: 50 µM | –
21 | CCCC=C(C=O)CC | inconclusive: 50 µM | –
22 | Cc1cccc(Nc2cc(Cl)nc(SCC(=O)O)n2)c1C | inconclusive: 50 µM | –
23 | CCCCCCCC1CCC(=O)O1 (stereo not given) | – | inactive
24 | CC(C)COC(=O)CC(C(=O)OCC(C)C)S(=O)(=O)O (stereo not given) | – | inactive
25 | CCCCCCCCOS(=O)(=O)O | inconclusive: 50 µM | –
26 | F[Si-2](F)(F)(F)(F)F | – | inactive
27 | CCCCCCCCCC(C)=O | – | inactive
28 | Cc1ccc(N(C)C)cc1 | inconclusive: 50 µM | –
29 | COc1cc(OC)c2ccc(=O)oc2c1 | – | inactive
30 | CC(C)(C)c1ccc(O)c(C(C)(C)C)c1 | inconclusive: 87 µM | –

Each molecule was assayed against Androgen Receptor/SRC-1 Co-activator, AR (gene 367) (UniProt P10275) (assay: OT_AR_ARSRC1_0480: Odyssey Thera (OT) 8-hour HEK293T Protein-Complementation Assay for Androgen Receptor/SRC-1 Co-activator (AID 2283354);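 further: hits raise the complementation signal above DMSO so AC50 marks enhancers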).
Procedure, shortened: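 After 8 h dosing, stably expressing HEK293T cells with split-Venus AR/SRC-1 fusions were imaged (488, 635nm). The 488nm N/C ratio per image gave the endpoint, analysed in the positive direction against DMSO.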

Row | SMILES | AC50
31 | CN[C@H]1CC[C@@H](c2ccc(Cl)c(Cl)c2)c2ccc(S(N)(=O)=O)cc21 | active: 19.9 µM
32 | CCc1cccc(CC)c1N | inconclusive: 50 µM
33 | COCCOCCOC | inconclusive: 50 µM

The molecules below were run against Estrogen receptor beta (Homo sapiens) (UniProt Q92731) (assay: OT_ER_ERbERb_0480: Odyssey Thera (OT) 8-hour HEK293T Protein-Complementation Assay for Estrogen Receptor-beta/-beta Homodimer (AID 2283357);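 further: active means signal gain over DMSO baseline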).
Procedure, shortened: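 Fluorescence gain from complemented reporter fragments on ER-beta LBD homodimer in HEK293T was quantified against DMSO controls after 8 h treatment, fixation in 4% formaldehyde and Draq5 staining.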

Row | SMILES | AC50 | outcome
34 | CN[C@H]1CC[C@@H](c2ccc(Cl)c(Cl)c2)c2ccc(S(N)(=O)=O)cc21 | inconclusive: 50 µM | –
35 | CCCCCCCC/C=C\CCCCCCCC(=O)N(C)CC(=O)O | – | inactive
36 | Cc1ccc(C(C)C)c(O)c1 | active: 33.9 µM | –
37 | F[Si-2](F)(F)(F)(F)F | inconclusive: 50 µM | –
38 | Cc1ccc(N(C)C)cc1 | inconclusive: 50 µM | –
39 | Nc1ccccc1N | inconclusive: 25.8 µM | –
40 | COCC(C)OCC(C)O (stereo not given) | inconclusive: 50 µM | –

The molecules below were run against human Peroxisome Proliferator-activated Receptor alpha (PPARa), PPARA (gene 5465) (UniProt Q07869) (assay: NVS_NR_hPPARa: NovaScreen (NVS) Nuclear Receptor Binding Assay for human Peroxisome Proliferator-activated Receptor alpha (PPARa) (AID 2283359);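 further: activity means loss of TR-FRET signal versus DMSO baseline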).
Procedure, shortened: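 One-hour incubation, cell-free extracted protein, TR-FRET binding readout; signal loss vs DMSO scored. Screen: 25 uM duplicates, confirmatory dose series for actives.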

Row | SMILES | AC50 | outcome
41 | CCc1nn(C2CCCCC2)c2cc(C3(C#N)CCC(C(=O)O)CC3)ccc12 (stereo not given) | inconclusive: 25 µM | –
42 | CC1=C(/C=C/C(C)=C/C=C/C(C)=C/C(=O)O)C(C)(C)CCC1 | – | inactive
43 | Cc1cccc(C)c1O | inconclusive: 4.96 µM | –
44 | COc1ccc2c(c1)c(CC(=O)O)c(C)n2C(=O)c1ccc(Cl)cc1 | inconclusive: 25 µM | –
45 | Nc1ccccc1N | inconclusive: 25 µM | –
